The supplement of paper PMC12823440, “Inhibitors supercharge kinase turnover through native proteolytic circuits” (Nature, 2025)
Where a name gives a salt, the structure may show the parent alone. This is one part of the list. The calls rarely recur for the same compound in another form.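 In K562 cells expressing nanoluciferase-fused kinases, luminescence was recorded at 4 h intervals between 2 and 18 h, normalized as percent of control with DMSO at 100% and a positive control at 0%. A significant (2 sigma) signal drop marks a time point as decreased. The authors' rule for a hit is not shown and takes in more than the number of time points.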

Chains of the proteins cited; added tags and fusions are not shown. Lines headed by an entry give the natural chain unless they say otherwise; changes in a name come on top.
UniProt Q9UM73: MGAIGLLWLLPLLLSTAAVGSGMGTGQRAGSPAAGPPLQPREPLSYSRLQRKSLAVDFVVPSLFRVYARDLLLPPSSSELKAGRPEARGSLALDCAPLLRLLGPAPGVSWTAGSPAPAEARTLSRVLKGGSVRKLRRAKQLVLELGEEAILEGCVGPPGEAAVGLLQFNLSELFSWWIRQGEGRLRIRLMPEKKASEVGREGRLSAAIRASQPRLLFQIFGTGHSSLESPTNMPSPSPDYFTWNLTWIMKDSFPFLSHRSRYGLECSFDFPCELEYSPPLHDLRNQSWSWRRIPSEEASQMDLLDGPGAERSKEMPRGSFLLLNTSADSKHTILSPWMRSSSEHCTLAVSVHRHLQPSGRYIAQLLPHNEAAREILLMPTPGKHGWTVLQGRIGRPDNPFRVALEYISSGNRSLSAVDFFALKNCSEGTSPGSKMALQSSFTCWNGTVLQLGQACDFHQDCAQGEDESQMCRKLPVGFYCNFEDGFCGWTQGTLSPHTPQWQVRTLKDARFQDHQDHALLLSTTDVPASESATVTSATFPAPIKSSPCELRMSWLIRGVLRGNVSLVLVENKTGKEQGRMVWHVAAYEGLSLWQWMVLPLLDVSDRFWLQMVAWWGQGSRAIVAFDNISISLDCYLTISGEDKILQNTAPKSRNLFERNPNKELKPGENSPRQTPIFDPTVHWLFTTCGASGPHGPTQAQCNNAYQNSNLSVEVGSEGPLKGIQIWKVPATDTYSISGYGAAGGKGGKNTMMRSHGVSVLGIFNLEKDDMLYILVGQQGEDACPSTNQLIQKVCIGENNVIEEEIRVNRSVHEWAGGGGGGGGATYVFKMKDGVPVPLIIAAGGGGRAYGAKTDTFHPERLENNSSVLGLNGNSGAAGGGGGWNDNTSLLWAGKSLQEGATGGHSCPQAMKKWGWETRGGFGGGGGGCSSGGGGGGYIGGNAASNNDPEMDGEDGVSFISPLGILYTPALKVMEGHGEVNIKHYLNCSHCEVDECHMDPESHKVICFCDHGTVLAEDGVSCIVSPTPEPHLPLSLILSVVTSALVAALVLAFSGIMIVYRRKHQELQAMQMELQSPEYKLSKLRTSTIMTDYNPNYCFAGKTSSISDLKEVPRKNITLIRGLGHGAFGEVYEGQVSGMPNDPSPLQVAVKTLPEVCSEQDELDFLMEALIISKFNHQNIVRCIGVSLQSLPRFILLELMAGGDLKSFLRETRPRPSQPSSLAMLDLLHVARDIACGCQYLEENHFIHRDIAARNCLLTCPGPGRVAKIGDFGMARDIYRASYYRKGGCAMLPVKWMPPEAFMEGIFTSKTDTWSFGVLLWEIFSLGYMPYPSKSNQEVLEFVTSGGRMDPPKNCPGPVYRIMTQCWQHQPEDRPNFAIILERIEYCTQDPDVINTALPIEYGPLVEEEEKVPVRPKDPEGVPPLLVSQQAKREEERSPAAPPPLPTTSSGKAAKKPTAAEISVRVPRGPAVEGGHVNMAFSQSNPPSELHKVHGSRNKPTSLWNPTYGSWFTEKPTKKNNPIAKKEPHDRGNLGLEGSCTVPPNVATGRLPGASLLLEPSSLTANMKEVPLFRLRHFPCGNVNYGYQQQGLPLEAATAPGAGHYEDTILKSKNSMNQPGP
UniProt P10398: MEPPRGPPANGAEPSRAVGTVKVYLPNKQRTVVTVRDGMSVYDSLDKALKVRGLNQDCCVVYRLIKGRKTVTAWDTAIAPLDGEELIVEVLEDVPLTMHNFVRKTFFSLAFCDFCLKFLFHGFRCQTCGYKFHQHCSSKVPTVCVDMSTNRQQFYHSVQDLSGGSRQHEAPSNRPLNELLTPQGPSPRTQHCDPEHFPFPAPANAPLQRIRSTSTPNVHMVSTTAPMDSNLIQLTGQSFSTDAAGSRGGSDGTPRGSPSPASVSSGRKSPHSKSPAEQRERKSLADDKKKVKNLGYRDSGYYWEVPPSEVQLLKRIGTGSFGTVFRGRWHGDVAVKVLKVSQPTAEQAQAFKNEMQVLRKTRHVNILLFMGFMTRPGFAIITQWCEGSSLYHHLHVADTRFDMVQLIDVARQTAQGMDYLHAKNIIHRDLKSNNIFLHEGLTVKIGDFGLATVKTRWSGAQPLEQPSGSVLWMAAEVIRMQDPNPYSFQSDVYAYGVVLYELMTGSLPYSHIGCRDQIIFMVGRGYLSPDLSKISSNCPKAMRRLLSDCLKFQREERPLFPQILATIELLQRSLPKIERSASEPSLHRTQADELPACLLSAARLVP
UniProt O14965: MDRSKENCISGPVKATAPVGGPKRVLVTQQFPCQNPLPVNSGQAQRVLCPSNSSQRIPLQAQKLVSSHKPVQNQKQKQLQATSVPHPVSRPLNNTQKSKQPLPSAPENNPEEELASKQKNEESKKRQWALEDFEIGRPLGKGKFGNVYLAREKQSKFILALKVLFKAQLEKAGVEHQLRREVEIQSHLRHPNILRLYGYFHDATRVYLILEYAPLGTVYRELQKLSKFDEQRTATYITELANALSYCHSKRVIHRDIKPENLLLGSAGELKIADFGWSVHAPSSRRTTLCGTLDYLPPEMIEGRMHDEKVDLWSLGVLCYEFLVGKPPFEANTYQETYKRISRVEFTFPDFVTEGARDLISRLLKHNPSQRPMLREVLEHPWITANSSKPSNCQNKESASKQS
UniProt Q96GD4, whole entry: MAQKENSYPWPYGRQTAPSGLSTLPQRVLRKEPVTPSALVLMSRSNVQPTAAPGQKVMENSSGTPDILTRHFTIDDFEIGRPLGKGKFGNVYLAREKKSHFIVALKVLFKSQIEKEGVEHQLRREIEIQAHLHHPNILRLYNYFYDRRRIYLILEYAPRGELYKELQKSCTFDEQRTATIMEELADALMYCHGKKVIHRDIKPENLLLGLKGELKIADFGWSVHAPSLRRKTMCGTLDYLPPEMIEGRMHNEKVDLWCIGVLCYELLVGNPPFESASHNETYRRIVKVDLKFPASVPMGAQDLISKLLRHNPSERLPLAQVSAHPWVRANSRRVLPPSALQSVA
UniProt P51451: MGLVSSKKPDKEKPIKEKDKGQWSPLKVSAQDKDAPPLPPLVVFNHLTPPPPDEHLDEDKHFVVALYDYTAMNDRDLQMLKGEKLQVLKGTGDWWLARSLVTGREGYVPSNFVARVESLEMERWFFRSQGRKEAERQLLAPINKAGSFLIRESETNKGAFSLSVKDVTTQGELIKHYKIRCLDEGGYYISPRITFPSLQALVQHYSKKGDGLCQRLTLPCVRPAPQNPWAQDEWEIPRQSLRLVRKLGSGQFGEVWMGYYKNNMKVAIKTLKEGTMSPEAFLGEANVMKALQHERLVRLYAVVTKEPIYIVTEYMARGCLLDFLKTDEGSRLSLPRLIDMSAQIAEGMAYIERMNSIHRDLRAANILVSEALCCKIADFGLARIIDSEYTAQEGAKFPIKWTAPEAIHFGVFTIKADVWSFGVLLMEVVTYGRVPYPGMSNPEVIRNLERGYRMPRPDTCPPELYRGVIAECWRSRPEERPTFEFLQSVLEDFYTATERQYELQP
UniProt P15056, whole entry, looked up: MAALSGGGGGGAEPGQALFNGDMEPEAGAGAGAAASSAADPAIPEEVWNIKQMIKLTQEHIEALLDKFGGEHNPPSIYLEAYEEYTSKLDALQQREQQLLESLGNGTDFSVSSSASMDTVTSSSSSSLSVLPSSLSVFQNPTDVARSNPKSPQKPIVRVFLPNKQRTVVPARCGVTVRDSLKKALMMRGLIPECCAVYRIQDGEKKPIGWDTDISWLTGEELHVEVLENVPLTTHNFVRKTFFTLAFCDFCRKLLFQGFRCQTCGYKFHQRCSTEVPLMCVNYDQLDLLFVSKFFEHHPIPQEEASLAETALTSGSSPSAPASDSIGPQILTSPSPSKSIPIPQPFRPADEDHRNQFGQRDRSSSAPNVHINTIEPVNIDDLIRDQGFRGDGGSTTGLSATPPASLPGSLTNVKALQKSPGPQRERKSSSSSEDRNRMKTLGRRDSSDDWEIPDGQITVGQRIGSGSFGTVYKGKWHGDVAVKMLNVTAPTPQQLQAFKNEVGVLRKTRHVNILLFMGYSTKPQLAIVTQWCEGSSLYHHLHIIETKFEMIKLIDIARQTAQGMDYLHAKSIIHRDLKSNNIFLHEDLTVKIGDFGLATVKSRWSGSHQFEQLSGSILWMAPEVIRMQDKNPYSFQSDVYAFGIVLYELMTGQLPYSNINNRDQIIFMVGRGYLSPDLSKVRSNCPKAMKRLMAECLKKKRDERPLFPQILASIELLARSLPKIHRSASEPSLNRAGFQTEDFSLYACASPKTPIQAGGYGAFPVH
UniProt Q06187: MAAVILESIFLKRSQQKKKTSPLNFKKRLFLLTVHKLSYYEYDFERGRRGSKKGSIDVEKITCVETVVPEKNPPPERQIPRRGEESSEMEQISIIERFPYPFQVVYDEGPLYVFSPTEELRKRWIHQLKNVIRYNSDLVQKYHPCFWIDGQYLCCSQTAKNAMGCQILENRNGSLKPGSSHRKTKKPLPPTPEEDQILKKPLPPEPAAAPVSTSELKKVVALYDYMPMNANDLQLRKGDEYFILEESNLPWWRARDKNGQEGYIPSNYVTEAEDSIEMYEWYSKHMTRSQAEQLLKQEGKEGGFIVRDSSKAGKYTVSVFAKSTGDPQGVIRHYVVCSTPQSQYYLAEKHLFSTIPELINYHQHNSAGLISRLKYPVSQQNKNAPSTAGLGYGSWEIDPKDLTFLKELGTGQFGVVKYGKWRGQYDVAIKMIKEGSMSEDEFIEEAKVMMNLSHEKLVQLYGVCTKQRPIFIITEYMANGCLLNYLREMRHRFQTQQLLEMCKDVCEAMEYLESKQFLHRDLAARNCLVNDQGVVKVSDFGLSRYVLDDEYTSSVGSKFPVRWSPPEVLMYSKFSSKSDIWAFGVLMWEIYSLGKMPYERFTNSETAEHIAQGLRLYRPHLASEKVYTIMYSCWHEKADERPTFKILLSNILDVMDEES
UniProt Q9UQM7, whole entry: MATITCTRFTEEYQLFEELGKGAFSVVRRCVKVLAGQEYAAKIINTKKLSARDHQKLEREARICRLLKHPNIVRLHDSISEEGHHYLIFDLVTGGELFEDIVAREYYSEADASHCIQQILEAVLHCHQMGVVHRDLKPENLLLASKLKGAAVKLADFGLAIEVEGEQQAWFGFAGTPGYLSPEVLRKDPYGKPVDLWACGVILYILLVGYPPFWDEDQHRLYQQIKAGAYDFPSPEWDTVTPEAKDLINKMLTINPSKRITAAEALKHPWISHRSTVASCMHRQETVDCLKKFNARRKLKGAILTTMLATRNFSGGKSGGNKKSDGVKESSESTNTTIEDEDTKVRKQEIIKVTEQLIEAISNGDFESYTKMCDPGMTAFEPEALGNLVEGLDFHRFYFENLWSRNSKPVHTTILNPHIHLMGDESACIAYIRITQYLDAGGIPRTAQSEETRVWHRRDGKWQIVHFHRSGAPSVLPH
UniProt Q13555: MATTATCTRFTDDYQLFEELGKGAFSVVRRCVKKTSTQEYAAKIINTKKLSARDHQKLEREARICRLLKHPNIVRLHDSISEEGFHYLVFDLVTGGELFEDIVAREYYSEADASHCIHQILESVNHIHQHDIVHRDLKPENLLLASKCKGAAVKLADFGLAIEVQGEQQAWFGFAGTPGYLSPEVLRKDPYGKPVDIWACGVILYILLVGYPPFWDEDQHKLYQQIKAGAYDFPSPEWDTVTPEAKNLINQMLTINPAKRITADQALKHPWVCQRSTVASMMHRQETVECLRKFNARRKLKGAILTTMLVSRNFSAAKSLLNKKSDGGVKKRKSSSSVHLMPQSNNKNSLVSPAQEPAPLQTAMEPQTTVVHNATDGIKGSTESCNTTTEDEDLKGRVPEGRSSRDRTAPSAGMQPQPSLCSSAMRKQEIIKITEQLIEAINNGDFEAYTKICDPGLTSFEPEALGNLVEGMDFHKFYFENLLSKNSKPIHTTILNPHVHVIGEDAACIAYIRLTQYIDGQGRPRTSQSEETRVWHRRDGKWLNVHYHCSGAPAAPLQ
UniProt Q00535, whole entry, looked up: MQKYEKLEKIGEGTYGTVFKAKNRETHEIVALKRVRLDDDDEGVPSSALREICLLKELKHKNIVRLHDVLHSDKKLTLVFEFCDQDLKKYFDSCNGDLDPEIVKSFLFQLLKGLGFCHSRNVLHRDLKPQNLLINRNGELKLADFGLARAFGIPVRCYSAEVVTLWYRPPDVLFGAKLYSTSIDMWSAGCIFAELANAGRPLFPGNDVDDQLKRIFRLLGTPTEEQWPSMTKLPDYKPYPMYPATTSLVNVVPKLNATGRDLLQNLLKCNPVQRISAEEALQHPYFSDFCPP
UniProt Q00534, whole entry: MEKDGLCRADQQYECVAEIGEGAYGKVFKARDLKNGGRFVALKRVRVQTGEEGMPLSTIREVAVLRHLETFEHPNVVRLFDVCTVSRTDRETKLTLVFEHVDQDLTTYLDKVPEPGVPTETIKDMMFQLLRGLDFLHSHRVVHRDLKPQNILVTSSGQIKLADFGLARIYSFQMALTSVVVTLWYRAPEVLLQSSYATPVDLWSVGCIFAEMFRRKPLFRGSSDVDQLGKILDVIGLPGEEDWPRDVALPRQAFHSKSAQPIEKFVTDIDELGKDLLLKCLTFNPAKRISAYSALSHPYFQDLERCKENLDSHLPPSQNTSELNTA

What was measured:
Test in all cases: number of time points (of 5) at which kinase-Nluc abundance scored as decreased, DMSO-normalised (count); higher = more persistent destabilization
Conditions in all cases: K562; 2-18 h
ALK = ALK (UniProt Q9UM73)
ARAF = ARAF (UniProt P10398)
AURKA = AURKA (UniProt O14965)
AURKB = AURKB (UniProt Q96GD4)
AURKC = AURKC (UniProt Q9UQB9)
BLK = BLK (UniProt P51451)
BMX = BMX (UniProt P51813)
BRAF = BRAF (UniProt P15056)
BRAF_V600E = tested on: BRAF_V600E
BTK = BTK (UniProt Q06187)
CAMK2A = CAMK2A (UniProt Q9UQM7)
CAMK2G = CAMK2G (UniProt Q13555)
CDK10 = CDK10 (UniProt Q15131)
CDK2 = CDK2 (UniProt P24941)
CDK3 = CDK3 (UniProt Q00526)
CDK5 = CDK5 (UniProt Q00535)
CDK6 = CDK6 (UniProt Q00534)
CHEK2 = CHEK2 (UniProt O96017)
CSF1R = CSF1R (UniProt P07333)
CSK = CSK (UniProt P41240)

Measured: number of time points

Cc1c(NC(=O)OC[C@@H]2COCCN2)cn2ncnc(Nc3ccc4c(cnn4Cc4cccc(F)c4)c3)c12 (10 µM)
0: all assays above

O=c1cc(O)cc(/C=C/c2ccc(O)c(O)c2)o1 [Hispidin] (10 µM)
0: all assays above

NCc1ccc(Nc2ncc(F)c(Nc3ccccc3)n2)cc1 (10 µM)
1: BRAF
0: all other assays above

Cn1cc(-c2ccc(CNc3cc(-c4cnc5cc(OCCCN6CCCC6)ccn45)ncn3)cc2)cn1 (10 µM)
0: all assays above

Cc1cc([C@H](C)Nc2ccccc2)c2oc(N3CCOCC3)cc(=O)c2c1 (10 µM)
0: all assays above

N#Cc1ccc2ncnc(NC3CCC(N4CCOCC4)CC3)c2c1 (stereo not given) (10 µM)
0: all assays above

O=C(O)c1cc(O)ccc1O [2,5-Dihydroxybenzoic acid] (10 µM)
0: all assays above

Nc1ncnc2c1ncn2[C@@H]1O[C@H](CO)C[C@H]1O [Cordycepin] (10 µM)
0: all assays above

COCCOc1cnc(Sc2cc(C)c(-c3csc(NC(=O)c4ccncc4)n3)c(C)c2)cn1 [T-1101 (tosylate)] (2.5 µM)
3: AURKA
1: BRAF_V600E
0: all other assays above

CC1CN(C(=O)Nc2ccc(Cl)c(Cl)c2)C(=Nc2ccc(F)cc2)S1 (stereo not given) (10 µM)
0: all assays above

Cc1ccc(-c2c(C(=O)CCl)n(CCCO)c3ncnc(N)c23)cc1 (10 µM)
3: ALK
2: CAMK2G | CDK6
4: AURKA | BLK | BMX | CHEK2
1: BRAF_V600E
5: AURKB | CSF1R
0: all other assays above

C[C@@]1(O)CCC[C@H]1n1c(=O)c(C(F)F)cc2cnc(NC3CCN(S(C)(=O)=O)CC3)nc21 (2.5 µM)
3: AURKA
1: ALK | BRAF_V600E
0: all other assays above

COc1ccc([C@H]2c3[nH]c4ccc(Cl)cc4c3CCN2C(=O)Oc2ccc(Cl)cc2)cc1 (2.5 µM)
1: BLK
0: all other assays above

CCn1c(-c2nonc2N)nc2cnc(Oc3cccc(NC(=O)c4ccc(OCCN5CCOCC5)cc4)c3)cc21 (10 µM)
5: BMX
0: all other assays above

O=C(/C=C/c1ccc(O[C@@H]2O[C@H](CO)[C@@H](O)[C@H](O)[C@H]2O[C@@H]2OC[C@](O)(CO)[C@H]2O)cc1)c1ccc(O)cc1O [Isoliquiritin apioside] (10 µM)
0: all assays above

Cc1ccc(-c2c(C(=O)CF)n(CCCO)c3ncnc(N)c23)cc1 (10 µM)
0: all assays above

CC1=C2C(=O)O[C@@H](c3ccoc3)[C@]2(C)CCC1 [Fraxinellone] (10 µM)
0: all assays above

O=C(NC(NC(=S)Nc1ccc(F)c([N+](=O)[O-])c1)C(Cl)(Cl)Cl)C(c1ccccc1)c1ccccc1 (stereo not given) (10 µM)
0: all assays above

O=C(/C=C/c1ccc(O)c(O)c1)OC1CC(OC(=O)/C=C/c2ccc(O)c(O)c2)(C(=O)O)CC(O)C1O (stereo not given) [1,3-Dicaffeoylquinic acid] (10 µM)
0: all assays above

Fetched one by one from the entries so far (2):
O=C(NC(NC(=S)Nc1ccc(F)c([N+](=O)[O-])c1)C(Cl)(Cl)Cl)C(c1ccccc1)c1ccccc1 (stereo not given) (10 µM)
0: all assays above

O=C(/C=C/c1ccc(O)c(O)c1)OC1CC(OC(=O)/C=C/c2ccc(O)c(O)c2)(C(=O)O)CC(O)C1O (stereo not given) [1,3-Dicaffeoylquinic acid] (10 µM)
0: all assays above

Continuation:

COc1ccc(-c2ccc3c(N4CCOC[C@@H]4C)nc(N4CCOC[C@@H]4C)nc3n2)cc1CO (2.5 µM)
1: BRAF | CAMK2A
3: ALK | BLK | BMX | CAMK2G
2: CHEK2
4: AURKA | AURKB | BRAF_V600E | CSF1R
0: all other assays above

CCc1cc(O)c(F)cc1-c1ccc2c(-c3nc4c([nH]3)CN(C3CCN(C)CC3)CC4)n[nH]c2c1 [JAK-IN-5 (hydrochloride)] (2 µM)
1: BMX | BRAF | CHEK2
3: AURKA
0: all other assays above

COc1ccc(Cn2cc(C(=O)N=Nc3c(O)[nH]c4c(C)cccc34)nn2)cc1 [MARK4 inhibitor 1] (10 µM)
0: all assays above

CCn1c(=O)c(-c2ccc(-c3cncs3)cc2Cl)cc2cnc(Nc3ccc(N4CCN(C)CC4)cc3)nc21 (2.5 µM)
0: all assays above
